Measured values taken from ChEMBL document CHEMBL4513136, “CO-ADD screening of CSIC (Spain) compounds”.
Some of the results follow. Entries with a potency or affinity are not part of this list.

What follows are compounds tested on Acinetobacter baumannii. Conditions: Concentration 32 ug.mL-1; ASSAY_TEST Inhibition of Bacterial Growth; detection method Absorption (OD600); MEDIA CAMHB; plate type 384well; NBS; CORNING #3640; time 18 hr.

Structure (SMILES) | Inhibition [%]
COC(=O)c1c(C(Cc2ccccc2)NC(=O)OCc2ccccc2)[nH]c2ccccc12 (stereo unspecified) | 2.72
COc1ccc(C(=O)/C=C/c2ccc(OC)cc2OC)cc1 | 2
O=C(OCc1ccccc1)N1C(=O)C(c2ccccc2NC(=O)C(F)(F)F)=C(O)C1Cc1ccccc1 (stereo unspecified) | -0.34
COc1ccc(OC)c(CC(=O)Nc2cc(OC)ccc2OC)c1 | 12.47
COc1ccccc1/C=C/C(=O)c1cc(OC)c(OC)cc1OC | 1.46
O=C(/C=C/c1ccccc1O)c1cc(O)c(O)cc1O | 6.82
COc1ccc(OC)c(C(=O)/C=C/c2ccccc2O)c1 | 7.89
O=C(Cc1cc(O)ccc1O)Nc1ccc(O)cc1 | 15.39
O=C(Cc1cc(O)ccc1O)Nc1ccc(O)cc1O | 0.38
O=C(/C=C/c1c[nH]c2ccc(O)cc12)c1cc(O)ccc1O | 9.7
COc1ccc(OC)c(CC(=O)Nc2ccc(OC)cc2OC)c1 | 4.05
COc1ccc(OC)c(C(=O)/C=C/c2ccc(O)cc2)c1 | 4.6
COC(=O)C1(Cc2ccc(OCc3c(Cl)cccc3Cl)cc2)C(C)C(=O)N1Cc1ccc(OC)cc1 (stereo unspecified) | 6.7
COc1ccc(OC)c(-c2cn(-c3ccc(OC)c(OC)c3)nn2)c1 | 1.88
COc1ccc(NC(=O)Cc2cc(OC)ccc2OC)cc1 | 10.5
CC1C(=O)N(Cc2ccc(OCCN3CCOCC3)cc2)C1(Cc1ccccc1)C(=O)O (stereo unspecified) | 10.79
COc1ccc(OC)c(C(=O)/C=C/c2c[nH]c3ccc(OC)cc23)c1 | 11.59
COc1ccc(OC)c(NC(=O)Nc2ccc(OC)cc2OC)c1 | 2.37
O=C(CCc1ccc(O)cc1O)c1cc(O)ccc1O | 6.13
COc1ccc(OC)c(C(=O)CCc2ccc(O)cc2)c1 | -7.99
Oc1ccc(O)c(-c2cn(-c3ccc(O)c(O)c3)nn2)c1 | 3.17
O=C(Cc1cc(O)ccc1O)Nc1cc(O)ccc1O | 17.71
COc1ccc(CN2C(=O)C(C)C2(Cc2cn(C(=O)OC(C)(C)C)c3ccccc23)C(=O)OC(C)(C)C)cc1 (stereo unspecified) | 2.64
O=C(Nc1ccc(O)cc1O)Nc1cc(O)ccc1O | 12.96
COc1ccc(OC)c(C(=O)CCc2ccccc2O)c1 | 9.6
Oc1ccc(-n2cc(-c3cc(O)ccc3O)nn2)cc1 | 16.02

Quoted from the listing (2 entries):
Structure (SMILES) | Inhibition [%]
CC1C(=O)N(Cc2ccc(OCCN3CCOCC3)cc2)C1(Cc1ccccc1)C(=O)O (stereo unspecified) | 10.79
COc1ccc(OC)c(C(=O)/C=C/c2c[nH]c3ccc(OC)cc23)c1 | 11.59
